Laboratory results: PubChem BioAssay AID602196 (INSERM, 2012)
Screen: 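Genes whose knock-down alters cisplatin killing of lung cancer cells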. System: human A549 lung cancer cells. Knock-down reagent: siRNA pair against human genes. Time to read-out: 48 h transfection before cisplatin; time from cisplatin to read-out not stated. Treatment: cisplatin at a dose killing half of control-siRNA cells; exact dose and duration not given. Measurement: 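Shift in cisplatin death relative to control siRNA, from -50 (all cells die) to +50 (no cells die); siRNAs harmful on their own scored 0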. Reading the numbers: two-siRNA summed score (-2 to +2): higher = both siRNAs protect from cisplatin killing; -2 means both sensitise; mean protection from cisplatin (shift in death): higher = protection from cisplatin killing. Call rule: 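Each siRNA scores 0 if harmful alone by LDH or WST-1, otherwise +1 if it reduces and -1 if it increases cisplatin killing; a gene is active when both siRNAs agree (sum +2 or -2)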. Meaning of the calls: active = both siRNAs shift cisplatin killing the same way; inactive = no consistent shift, or siRNA harmful alone.
In all, the deposit lists about 23,000 reagents; shown is a random part of them. 455 of all reagents (2%) count as active. 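Active includes both protection and sensitisation; some change values fall well beyond the stated -50 to +50 range.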 A number with no mark means an inactive call. Further read-outs or replicates are left out here. The record does not give: the amount of reagent.

With knock-down of NCALD (GeneID 83988), the screen gave two-siRNA summed score (-2 to +2) = 0; mean protection from cisplatin (shift in death) (%) = 7.8. TLR6 (GeneID 10333) scored two-siRNA summed score (-2 to +2) = -1; mean protection from cisplatin (shift in death) (%) = -3.2. LOC441343 scored two-siRNA summed score (-2 to +2) = 1; mean protection from cisplatin (shift in death) (%) = 9.1. ZNF792 (GeneID 126375) gave two-siRNA summed score (-2 to +2) = 0; mean protection from cisplatin (shift in death) (%) = 0.5. With knock-down of KCTD8 (GeneID 386617) the results were two-siRNA summed score (-2 to +2) = 0; mean protection from cisplatin (shift in death) (%) = 6.9. Against FBXL16 (GeneID 146330), the entry reads two-siRNA summed score (-2 to +2) = 1; mean protection from cisplatin (shift in death) (%) = 12.4.

Depletion of MIOS (GeneID 54468) resulted in: two-siRNA summed score (-2 to +2) = 0; mean protection from cisplatin (shift in death) (%) = 3.2. For LOC440144, the values are two-siRNA summed score (-2 to +2) = 0; mean protection from cisplatin (shift in death) (%) = 10.7. NPIPA1 (GeneID 9284) scored two-siRNA summed score (-2 to +2) = 0; mean protection from cisplatin (shift in death) (%) = 5.8. Against KNG1 (GeneID 3827), the values are two-siRNA summed score (-2 to +2) = 0; mean protection from cisplatin (shift in death) (%) = -4.9. Against ZNF770 (GeneID 54989) the deposit lists two-siRNA summed score (-2 to +2) = 0; mean protection from cisplatin (shift in death) (%) = 10.5. Against DTNBP1 (GeneID 84062), the entry reads two-siRNA summed score (-2 to +2) = 1; mean protection from cisplatin (shift in death) (%) = 21.9.

LECT2 (GeneID 3950) scored two-siRNA summed score (-2 to +2) = 0; mean protection from cisplatin (shift in death) (%) = 12.3. Knock-down of EDRF1 (GeneID 26098) came out at: two-siRNA summed score (-2 to +2) = 0; mean protection from cisplatin (shift in death) (%) = 8.2. With knock-down of TWSG1 (GeneID 57045) the results were two-siRNA summed score (-2 to +2) = 0; mean protection from cisplatin (shift in death) (%) = 8.5. SLC19A4P (GeneID 56918) gave two-siRNA summed score (-2 to +2) = 1; mean protection from cisplatin (shift in death) (%) = 3.3. After knock-down of F7 (GeneID 2155), the screen gave two-siRNA summed score (-2 to +2) = 0; mean protection from cisplatin (shift in death) (%) = -1.2. Knock-down of CLIC3 (GeneID 9022) came out at: two-siRNA summed score (-2 to +2) = 0; mean protection from cisplatin (shift in death) (%) = -8.3.

CHCHD2 (GeneID 51142) showed two-siRNA summed score (-2 to +2) = 0; mean protection from cisplatin (shift in death) (%) = 6.1. CAPZA1 (GeneID 829) showed two-siRNA summed score (-2 to +2) = 0; mean protection from cisplatin (shift in death) (%) = 1.2. For VMO1 (GeneID 284013), the entry reads two-siRNA summed score (-2 to +2) = 0; mean protection from cisplatin (shift in death) (%) = 13.8. RBMX2 (GeneID 51634) gave two-siRNA summed score (-2 to +2) = 0; mean protection from cisplatin (shift in death) (%) = 15.4. Knock-down of WDR97 (GeneID 340390) resulted in: two-siRNA summed score (-2 to +2) = 1; mean protection from cisplatin (shift in death) (%) = 9.8. Depletion of LOC442377 gave: two-siRNA summed score (-2 to +2) = 0; mean protection from cisplatin (shift in death) (%) = -2.7.

Against LOC402117 the deposit lists two-siRNA summed score (-2 to +2) = 0; mean protection from cisplatin (shift in death) (%) = 1.8. Knock-down of ATP5F1B (GeneID 506) came out at: two-siRNA summed score (-2 to +2) = 1; mean protection from cisplatin (shift in death) (%) = 16.4. Depletion of SLC7A2 (GeneID 6542) came out at: two-siRNA summed score (-2 to +2) = 0; mean protection from cisplatin (shift in death) (%) = 12.2. CCL22 (GeneID 6367) gave two-siRNA summed score (-2 to +2) = 0; mean protection from cisplatin (shift in death) (%) = 7.2. For LOC390511, the values are two-siRNA summed score (-2 to +2) = 0; mean protection from cisplatin (shift in death) (%) = -2.1. Against LOC400533, the values are two-siRNA summed score (-2 to +2) = 0; mean protection from cisplatin (shift in death) (%) = 8.4.

Depletion of SLC71A2 (GeneID 84641) gave: two-siRNA summed score (-2 to +2) = 1; mean protection from cisplatin (shift in death) (%) = 6.9.

Ordered by “two-siRNA summed score (-2 to +2)” (lowest first): some entries from above.
MIOS (GeneID 54468) — two-siRNA summed score (-2 to +2): 0; mean protection from cisplatin (shift in death) (%): 3.2
LOC440144 — two-siRNA summed score (-2 to +2): 0; mean protection from cisplatin (shift in death) (%): 10.7
NPIPA1 (GeneID 9284) — two-siRNA summed score (-2 to +2): 0; mean protection from cisplatin (shift in death) (%): 5.8
KNG1 (GeneID 3827) — two-siRNA summed score (-2 to +2): 0; mean protection from cisplatin (shift in death) (%): -4.9
FBXL16 (GeneID 146330) — two-siRNA summed score (-2 to +2): 1; mean protection from cisplatin (shift in death) (%): 12.4
